From PubChem BioAssay record AID1159506 (NCATS, 2015).

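Luminescence from an EWS-FLI1 target-promoter (NR0B1) reporter, set against a CMV-promoter reporter, two days after silencing single genes in TC32 Ewing sarcoma cells.
Each siRNA was applied at 20 nM.
A z-score of the log NR0B1-over-CMV signal, less the median of siRNAs with the same seed; more negative means a stronger specific loss of the NR0B1 reporter.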

The strongest results of the screen are mostly left out here.
Sequences are the guide (antisense) strand, without overhang.

strand	target gene	seed-corrected z-score
UACAGAUCGUUGACCACGC	FAM84B	0.7081
ACUGGGAGCACUAUAGUUG	ZFP36L1	-1.479
AACGUGACGACAUCGAAUC	NTPCR	0.2961
UCUUCAAUCAAGUUGUUCU	ZC3H18-AS1	0.4282
UAAUUAAGACCCGGUAUUC	MOV10	-0.5783
UCCAGGUCCAGGGUAAUGA	TDG	-1.159
UCUGAAUCAAAGAACGAGC	FANCM	0.4584
UUCCGGUUCAGAUCUAUUC	CPE	-0.04515
UAUUAGUGAUGGAAUGUUG	NXN	0.2066
UUUGAUCCUAUACUCAUCG	C1orf21	-0.6133
UGAGUUCCUAGAUCUACUG	ZMYM5	-0.2651
UGCAGUGAUAGCCUCUCGC	BLOC1S1	0.04793
UAGACGUAUUCGUUGGUGG	PRKCSH	-0.7501
AACUGAUCAAGUUCGUUCC	CCPG1	0.4402
UAAAUGUCUAAAUGUUUUG	DLGAP1	0.8378
UCAAUAGCAGGGAUUUUCC	SAMD13	-0.3499
UAUGAGCACACUGUUAUCU	RHD	0.3297
UUGAAAUCCACGAACAGCA	CDX4	-1.516
UCGAAGUUCAUGGUUAUUG	B3GALNT2	0.2641
UAAGAUGACUGGGAUCACG	HRH4	0.01852
UUCCUACUUAGUCUUACGG	IL1RL1	-0.9124
UAUGUUGGGAUCGGCAUUG	ANKRD34B	0.3336
UUGGAUUUCACAGUGCUCA	KCNE2	2.172
UAAAGAACCUCUUGCGGGU	SARM1	-1.28
UCAUUGUAUAAGAUUUUCC	KIF1B	0.04082
UGUUUUCAAAGUAGCCUCU	APOBEC3H	0.1886
UUGCAUGAAAUUACAAGCC	SYNPO2	0.5696
UUUCUUUACAAUGAAGUCG	LIPF	-0.5946
UAUUUCCCAAGGGCAAUCC	C10orf120	-0.7703
AGAUGAACAAUUGACGGCU	CD59	-0.03502
AUCAGACCCAAAUCGGACG	PTHLH	-1.575
UGAACUCAGACUCAAGUCC	PAOX	-0.132
UUUCUCACCUCUCCGUACG	GALNT9	1.217
AACUGUAACUUUGUUCACC	CEP63	0.5508
AGCUGGAACAGAGUAUGGC	THEM6	-0.6287
AUAAUGUUGAUGUUGCUCU	TKTL1	-0.3805
UAGUUAAAAGUGUCGGUGG	CPA1	-1.808
UCCAUCUCAAUUUGGAUCU	ZNF221	-0.8089
UACUAUUUCCUCGUAUUAC	SNRPG	-1.325
UUUCUUAGAAUAGGAGGCC	CETP	-0.06886
UUCCAGAACCACGAGAUCU	RPUSD1	-0.1815
ACAGUUAUCAUCAAUGAGC	TMEM71	0.6255
UAACUGCUAUAGAUGAAUC	DNAAF2	-1.381
AUCGUAUUCAAAAAGACCA	CATSPER2	0.7746
UAACCUAAACCUUCUGACC	LACTB	0.7985
UCUGUACUCGGUACACUCG	ELP3	-0.8519
UUCAUUUAUCUCCUGAACU	FAM96A	1.197
UCUAGAAUCAAAGAUUUCC	GIMAP7	0.547
UUUGCAAAAACCUUAUUUC	CCL25	-0.2464
UACGCUAGGACAUAAGCAG	ARFGEF2	0.5914
UGUAGUAUAAAGGAAGCUC	TTC14	-0.8774
UUCCCAUUGACGGUGACCC	IFI30	-1.376
UGUUGUUGUGGUAUUGUCU	RNF115	1.251
UUUCAUAAAAUGUACCAGC	ZNF234	0.1284
UGAAUCUUUAUUAAACUAG	APOE	-0.3949
UAGUGUGAGAGAUUAAUUG	WWC2-AS2	-0.4386
AAAGGUCCCACACUUUCCC	EIF3CL	0.9918
UAGAUUUUACGGGUCACUC	MT1G	0.9516
UUUUCUUGUCCAGAAGUUC	CTSB	0.8546
UCCUCGACAAGUCGAACUC	BCL9L	-0.07344
AAUAGCACUGUGACCGUCC	PANK2	0.4246
UCGUAGUCCUGGUACAUCG	SIPA1L3	-0.08086
GAAGCGACUCUUCUAAGGC	IFNL3	0.2029
AAUCUAACCAGUUCCAUGG	SCN8A	-0.1075
UCUAGAUACUCAUCAGUUG	MYL12A	0.3904
UUUCAUUGUUUGUACAUGC	KANK1	0.9272
AAUCGGAAACGUGAACGGG	IGLON5	-0.6643
AGACUGAAAAGACAGACCC	FLJ45079	-0.3984
UAAGAUUGAUAGGCGAGGG	CXorf23	-0.4428
UUUUCCUAUGCGAUAGCCC	LOC441956	0.359
UUCGUAACCCGAAUGGAUG	PER1	1.445
UGCGCUCUUAGGUUCCUGG	DDX11	0.272
UUGACUGUCAACGAUGUGG	PSG2	-0.02101

For reference, 9 entries once more:

For UAGACGUAUUCGUUGGUGG against PRKCSH the result was seed-corrected z-score -0.7501.
For ACUGGGAGCACUAUAGUUG against ZFP36L1 the result was seed-corrected z-score -1.479.
For UAAAUGUCUAAAUGUUUUG against DLGAP1 the result was seed-corrected z-score 0.8378.
For AAUAGCACUGUGACCGUCC against PANK2 the result was seed-corrected z-score 0.4246.
For UCCAUCUCAAUUUGGAUCU against ZNF221 the result was seed-corrected z-score -0.8089.
For UAUGUUGGGAUCGGCAUUG against ANKRD34B the result was seed-corrected z-score 0.3336.
For UACUAUUUCCUCGUAUUAC against SNRPG the result was seed-corrected z-score -1.325.
For AAUCGGAAACGUGAACGGG against IGLON5 the result was seed-corrected z-score -0.6643.
For UUUCUUAGAAUAGGAGGCC against CETP the result was seed-corrected z-score -0.06886.